This is an account of results in PubChem BioAssay AID330 (DTP/NCI, 2004).

The list does not hold the whole screen: it is rich in T/C values a quarter to a half above the control, in often repeated tests (any T/C) and in doses without a T/C. Further doses and runs are listed elsewhere. T/C gives the treated animals as a percentage of the vehicle group. Some entries give survivors of the animals treated and no T/C: the source holds a T/C of zero for them, seemingly a mark for toxic or unscored doses. Some doses without a T/C left all or most animals alive at the check, yet need not have been tolerated: the source hardly ever lists a survival T/C far under the control, and the zero likely stands for such cases as well. Survivors were counted at the toxicity check, usually on the fifth day, unless a day is given; later deaths do not show. Schedule codes are those of the source, read here as Q, the interval in days (D) or hours (H), X, the number of doses. Some structures stand for samples that the source files as different forms (salt, stereo form or complex); doses refer to the form tested. For survival time, this PubChem deposit counts one and a half times the control or more as active, and values a quarter to a half above the control carry no call in these data; other NCI protocols may use other cut-offs. Some T/C values are followed by the survivors on the day toxicity was checked, most often the fifth; without a count, all were alive then. Some entries hold several experiments; their values stand side by side, smallest first. Counts like (3×) say how often a value occurs here.

The subject of this assay is P388 leukemia ip, CD2F1 mice, survival T/C. The experiment in a line: NCI In Vivo Anticancer Drug Screen. Data for tumor model P388 Leukemia (intraperitoneal) in CD2F1 (CDF1) mice. Particulars: T/C endpoint: median survival time, higher T/C = longer survival.
[1] abbreviates: dose: 100.0 mg/kg/injection, schedule: Q01DX005 (ip), vehicle: saline.
Where [2] appears, read: dose: 200.0 mg/kg/injection, schedule: Q01DX005 (ip), vehicle: saline.
Where [3] appears, read: dose: 50.0 mg/kg/injection, schedule: Q01DX005 (ip), vehicle: saline with Tween-80.
Where [4] appears, read: dose: 100.0 mg/kg/injection, schedule: Q01DX005 (ip), vehicle: saline with Tween-80.
[5] abbreviates: dose: 200.0 mg/kg/injection, schedule: Q01DX005 (ip), vehicle: saline with Tween-80.
[6] abbreviates: dose: 25.0 mg/kg/injection, schedule: Q01DX009 (ip), vehicle: saline with Tween-80.
Setting [7] is: dose: 100.0 mg/kg/injection, schedule: Q01DX009 (ip), vehicle: saline with Tween-80.
Where [8] appears, read: dose: 200.0 mg/kg/injection, schedule: Q01DX009 (ip), vehicle: saline with Tween-80.
Setting [9] is: dose: 100.0 mg/kg/injection, schedule: Q01DX009 (ip), vehicle: saline.
Setting [10] is: dose: 50.0 mg/kg/injection, schedule: Q01DX009 (ip), vehicle: Klucel (hydroxypropylcellulose) (HPC).
The mark [11] stands for this setting: dose: 100.0 mg/kg/injection, schedule: Q01DX009 (ip), vehicle: Klucel (hydroxypropylcellulose) (HPC).
Setting [12] is: dose: 200.0 mg/kg/injection, schedule: Q01DX009 (ip), vehicle: Klucel (hydroxypropylcellulose) (HPC).
Setting [13] is: dose: 3.12 mg/kg/injection, schedule: Q01DX005 (ip), vehicle: Klucel (hydroxypropylcellulose) (HPC).
[14] abbreviates: dose: 200.0 mg/kg/injection, schedule: Q01DX005 (ip), vehicle: Klucel (hydroxypropylcellulose) (HPC).

For `CCN(CC)CCNc1ccc(CO)c2sc3ccccc3c(=O)c12`, the T/C is 97, 100, 103 % of control (2×) (dose: 6.25 mg/kg/injection, schedule: Q01DX005 (ip), vehicle: water); 96, 102 [5 of 6 alive], 109, 113 % of control (dose: 12.5 mg/kg/injection, schedule: Q01DX005 (ip), vehicle: water); 96, 113, 115, 116 % of control (dose: 25.0 mg/kg/injection, schedule: Q01DX005 (ip), vehicle: water); 128 % of control (dose: 40.0 mg/kg/injection, schedule: Q01DX005 (ip), vehicle: water); 148 % of control (dose: 40.0 mg/kg/injection, schedule: Q01DX009 (ip), vehicle: water); 130 % of control (dose: 48.0 mg/kg/injection, schedule: Q01DX005 (ip), vehicle: water). The T/C is, setting by setting: (dose: 50.0 mg/kg/injection, schedule: Q01DX005 (ip), vehicle: saline) 125 % of control; (dose: 50.0 mg/kg/injection, schedule: Q01DX005 (ip), vehicle: water) 99, 138, 154, 158 % of control; (dose: 100.0 mg/kg/injection, schedule: Q01DX005 (ip), vehicle: water) 94 [4 of 5 alive], 104, 157, 163 % of control; (dose: 132.0 mg/kg/injection, schedule: Q04DX003 (ip), vehicle: saline sonified) 131 % of control; (dose: 200.0 mg/kg/injection, schedule: Q04DX003 (ip), vehicle: saline with Tween-80) 127 % of control; (dose: 300.0 mg/kg/injection, schedule: Q04DX003 (ip), vehicle: saline sonified) 140 % of control. For the same compound, the survivor count reads like this: (dose: 80.0 mg/kg/injection, schedule: Q01DX009 (ip), vehicle: water) 6 of 6; (dose: 160.0 mg/kg/injection, schedule: Q01DX005 (ip), vehicle: water) 6 of 6.

Turning to `CCCCCCN(CCCCCC)C(=N)c1ccnc2ccccc12`, the survivor count was 0 of 5 under setting [1] and 0 of 5 under setting [2].

Take `CN(C)CCC=C1c2ccccc2C=Cc2ccccc21`: the survivor count by setting is: under setting [1], 4 of 6; under setting [2], 0 of 6.

As to `CC(=O)SC(C(=O)O)C(SC(C)=O)C(=O)O` (stereo not given), the survivor count (dose: 400.0 mg/kg/injection, schedule: Q01DX009 (ip), vehicle: other) is given as 3 of 6.

Take `Cc1ccc(C=C(C#N)C#N)o1`: the survivor count (dose: 240.0 mg/kg/injection, schedule: Q01DX005 (ip), vehicle: saline with Tween-80) is on record as 0 of 6.

Consider `CC(Cc1ccc2c(c1)OCO2)NN` (stereo not given), for which the survivor count is, setting by setting: under setting [3], 0 of 5; under setting [4], 0 of 5; under setting [5], 0 of 5.

Consider `CSc1nc(COC(=O)NC(C)C)c(COC(=O)NC(C)C)n1Cc1ccccc1`, for which, for the setting “dose: 400.0 mg/kg/injection, schedule: Q01DX005 (ip), vehicle: saline with Tween-80”, the survivor count was 3 of 6.

`OC(C[n+]1ccccc1)c1ccc2c(c1)OCO2` (stereo not given): under setting [5], the survivor count is 2 of 5.

In the case of `CC(=O)C1=C(C)O/C(=C/c2ccc(Cl)cc2)C1=O`, the survivor count under setting [5] is 6 of 6.

Take `CC(=O)c1ccccc1OCC(O)CNc1ccc(Cl)cc1C(=O)c1ccccc1` (stereo not given): the survivor count (dose: 120.0 mg/kg/injection, schedule: Q01DX005 (ip), vehicle: saline with Tween-80) is 6 of 6.

For the compound `CCOC(=O)C(N)C[S][Sn]([CH3])([CH3])[Cl]` (stereo not given), the T/C under setting [6] was 129 % of control. Also, the survivor count is listed as 4 of 6 under setting [7] and 0 of 6 under setting [8].

In the case of `CCOC(=O)N(C)C(C)=O`, the survivor count (dose: 50.0 mg/kg/injection, schedule: Q01DX009 (ip), vehicle: saline) is reported as 6 of 6; the survivor count under setting [9] is on record as 5 of 6; the survivor count under setting [8] is reported as 6 of 6.

Consider `CC(C)(C)N(O)N=O.CC(C)(C)N(O)N=O.[Cu]`, for which the survivor count is recorded as 3 of 6 (dose: 12.5 mg/kg/injection, schedule: Q01DX001 (ip), vehicle: saline with Tween-80); 2 of 6 (dose: 25.0 mg/kg/injection, schedule: Q01DX001 (ip), vehicle: saline with Tween-80); 0 of 6 (dose: 100.0 mg/kg/injection, schedule: Q01DX001 (ip), vehicle: saline with Tween-80); 0 of 6 (dose: 200.0 mg/kg/injection, schedule: Q01DX001 (ip), vehicle: saline with Tween-80); 0 of 6 (dose: 400.0 mg/kg/injection, schedule: Q01DX001 (ip), vehicle: saline with Tween-80).

Regarding `N#CSc1ccc2nc(NC(NC(=O)c3ccccc3)C(Cl)(Cl)Cl)sc2c1` (stereo not given), the survivor count under setting [10] is 6 of 6, the survivor count under setting [11] is 6 of 6 and the survivor count under setting [12] is on record as 5 of 6.

`Nc1ccc(-c2csc(-c3ccc(Br)cc3)n2)cc1`: the survivor count reads like this: under setting [10], 6 of 6; under setting [11], 6 of 6; under setting [12], 6 of 6.

Take `O=CC=O`: the T/C is 135 % of control under setting [7] and 131 % of control under setting [9].

For `CS(=O)(=O)c1snc(N)c1C#N`, the survivor count by setting is: under setting [3], 0 of 6; under setting [4], 0 of 6; under setting [5], 0 of 6.

Regarding `COC(=O)[CH2][Sn]([CH2]C(=O)OC)([c]1ccccc1)[c]1ccccc1`, the survivor count by setting is: (dose: 1.56 mg/kg/injection, schedule: Q01DX005 (ip), vehicle: Klucel (hydroxypropylcellulose) (HPC)) 1 of 6; under setting [13], 0 of 6; (dose: 6.25 mg/kg/injection, schedule: Q01DX005 (ip), vehicle: Klucel (hydroxypropylcellulose) (HPC)) 0 of 6; (dose: 12.5 mg/kg/injection, schedule: Q01DX005 (ip), vehicle: Klucel (hydroxypropylcellulose) (HPC)) 0 of 6; (dose: 50.0 mg/kg/injection, schedule: Q01DX005 (ip), vehicle: Klucel (hydroxypropylcellulose) (HPC)) 0 of 6; (dose: 100.0 mg/kg/injection, schedule: Q01DX005 (ip), vehicle: Klucel (hydroxypropylcellulose) (HPC)) 0 of 6. The survivor count under setting [14] was 0 of 6. The T/C under setting [13] was 131 % of control [5 of 6 alive].

Regarding `C=CC[n+]1cc2c3ccccc3c(N)cc2c2ccccc21`, the survivor count is given as 5 of 6 (dose: 25.0 mg/kg/injection, schedule: Q04DX003 (ip), vehicle: other); 3 of 6 (dose: 25.0 mg/kg/injection, schedule: Q04DX003 (ip), vehicle: water); 0 of 6 (dose: 50.0 mg/kg/injection, schedule: Q04DX003 (ip), vehicle: other); 0 of 6 (dose: 100.0 mg/kg/injection, schedule: Q04DX003 (ip), vehicle: other); 0 of 6 (dose: 200.0 mg/kg/injection, schedule: Q04DX003 (ip), vehicle: other).

For the compound `CCN(CC)CCSc1ccccc1`, the survivor count under setting [14] is recorded as 0 of 6.

Turning to `O=C(Nc1ccc(-c2c[nH]c(=O)c([N+](=O)[O-])c2)cc1)OCc1ccccc1`, the survivor count under setting [6] is 6 of 6; the survivor count (dose: 50.0 mg/kg/injection, schedule: Q01DX009 (ip), vehicle: saline with Tween-80) is on record as 6 of 6; the survivor count under setting [7] is reported as 6 of 6; the survivor count under setting [8] is listed as 6 of 6.

On to `CNC(=O)O/N=C(\CN=[N+]=[N-])C(C)(C)C`, for which the survivor count is given as 2 of 6 (dose: 1.56 mg/kg/injection, schedule: Q01DX009 (ip), vehicle: saline with Tween-80); 0 of 6 (dose: 3.13 mg/kg/injection, schedule: Q01DX009 (ip), vehicle: saline with Tween-80); 0 of 6 (dose: 6.25 mg/kg/injection, schedule: Q01DX009 (ip), vehicle: saline with Tween-80).
